# Experimental data: PubChem BioAssay AID1259425 (University of Nebraska Medical Center, 2018)
# Assay: 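Seek colon cancer weak points whose silencing resembles KSR1 loss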 (primary screen)
# Cells: HCT116 human colon cancer cells
# Reagents: siRNA pool against human genes, 50 nM siRNA
# Detection: 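After 50 nM siRNA pool, branched-DNA assay measures six marker transcripts per well, minus blank, normalised to the geometric mean of two housekeeping transcripts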
# Direction: BNIP3L mRNA: higher = more BNIP3L transcript after knockdown; NDRG1 mRNA: higher = more NDRG1 transcript after knockdown
# The whole screen tested about 14,000 reagents; shown is an unselected part. Not all columns of the deposit are shown. Not given: the time to read-out.
Gene,"BNIP3L mRNA, set 1","NDRG1 mRNA, set 1"
TBK1,0.0928,0.11
CFB,0.115,0.14
VPS36,0.122,0.173
UTS2R,0.0497,0.14
ADAP2,0.0519,0.0844
IRAG1,0.224,0.268
LGMN,0.077,0.0553
TIE1,0.12,0.192
JMJD4,0.0976,0.22
FBF1,0.243,0.485
ST13,0.0546,0.0674
RNF14,0.0687,0.114
SNAPC3,0.148,0.115
ATP5MC3,0.094,0.107
HOXD1,0.137,0.079
LSM5,0.115,0.545
DDIT3,0.0696,0.0637
COX6A2,0.0756,0.528
JAK2,0.0892,0.124
SOCS4,0.0902,0.158

Part of the list above in another layout.
| Gene | BNIP3L mRNA, set 1 | NDRG1 mRNA, set 1 |
| --- | --- | --- |
| ADAP2 | 0.0519 | 0.0844 |
| IRAG1 | 0.224 | 0.268 |
